Record: PubChem BioAssay AID1259425 (University of Nebraska Medical Center, 2018)

Purpose: 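Seek colon cancer weak points whose silencing resembles KSR1 loss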 (primary screen)
System: HCT116 human colon cancer cells
Reagents: siRNA pool against human genes, 50 nM siRNA
Measurement: 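mRNA of six signature genes measured together by branched-DNA assay after 50 nM siRNA pool, blank removed, divided by geometric mean of two housekeeping genes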
Scale: BNIP3L mRNA: higher = more BNIP3L transcript after knockdown; NDRG1 mRNA: higher = more NDRG1 transcript after knockdown; BNIP3 mRNA: higher = more BNIP3 transcript after knockdown
Shown is an unselected part of about 14,000 reagents tested. Further read-outs or replicates are left out here. Not stated in the record: the time to read-out.

| BNIP3L mRNA, set 1 | NDRG1 mRNA, set 1 | BNIP3 mRNA, set 1 | target gene | PubChem SID |
| --- | --- | --- | --- | --- |
| 0.0444 | 0.0611 | 0.185 | ISL2 (ISL LIM homeobox 2) | SID364004674 |
| 0.0859 | 0.319 | 0.342 | LDB2 (LIM domain binding 2) | SID363992574 |
| 0.153 | 0.287 | 0.292 | VEGFD (vascular endothelial growth factor D) | SID363995451 |
| 0.117 | 0.537 | 0.337 | UBIAD1 (UbiA prenyltransferase domain containing 1) | SID363998431 |
| 0.0631 | 0.0841 | 0.189 | RAB4B (RAB4B, member RAS oncogene family) | SID363999915 |
| 0.166 | 0.158 | 0.241 | FRMPD3 (FERM and PDZ domain containing 3) | SID364005150 |
| 0.17 | 0.26 | 0.333 | CGN (cingulin) | SID364001816 |
| 0.12 | 0.172 | 0.35 | PDE5A (phosphodiesterase 5A) | SID363992380 |
| 0.0246 | 0.0401 | 0.387 | H4C14 (H4 clustered histone 14) | SID363994631 |
| 0.214 | 0.169 | 0.287 | VPS11 (VPS11 core subunit of CORVET and HOPS complexes) | SID364002172 |
| 0.0304 | 0.0781 | 0.387 | DMPK (DM1 protein kinase) | SID363995392 |
| 0.281 | 0.572 | 0.338 | ZDHHC18 (zDHHC palmitoyltransferase 18) | SID364005191 |
| 0.219 | 0.27 | 0.307 | NICN1 (nicolin 1, tubulin polyglutamylase complex subunit) | SID364003902 |
| 0.114 | 0.0358 | 0.26 | PDK1 (pyruvate dehydrogenase kinase 1) | SID363993778 |
| 0.135 | 0.242 | 0.224 | PMS2P3 | SID363996304 |
| 0.121 | 0.143 | 0.362 | IDH1 (isocitrate dehydrogenase (NADP(+)) 1) | SID363996765 |
| 0.222 | 0.303 | 0.249 | GOLPH3 (golgi phosphoprotein 3) | SID364002356 |
| 0.162 | 0.411 | 0.181 | CHST3 (carbohydrate sulfotransferase 3) | SID363995268 |

Taken from above:
For “BNIP3 mRNA, set 1”, PMS2P3 [SID363996304] reads 0.224
For “BNIP3 mRNA, set 1”, DMPK (DM1 protein kinase) [SID363995392] is entered as 0.387
Under “BNIP3L mRNA, set 1”, VEGFD (vascular endothelial growth factor D) [SID363995451] is entered as 0.153
FRMPD3 (FERM and PDZ domain containing 3) [SID364005150], BNIP3 mRNA, set 1: 0.241
Entry of ZDHHC18 (zDHHC palmitoyltransferase 18) [SID364005191] under “BNIP3L mRNA, set 1”: 0.281

Continued.
| BNIP3L mRNA, set 1 | NDRG1 mRNA, set 1 | BNIP3 mRNA, set 1 | target gene | PubChem SID |
| --- | --- | --- | --- | --- |
| 0.0911 | 0.104 | 0.294 | CEACAM7 (CEA cell adhesion molecule 7) | SID363997647 |
| 0.0597 | 0.377 | 0.232 | KLK8 (kallikrein related peptidase 8) | SID363997895 |
| 0.166 | 0.456 | 0.28 | BTC (betacellulin) | SID363992950 |
| 0.0889 | 0.189 | 0.219 | ADAMTS6 (ADAM metallopeptidase with thrombospondin type 1 motif 6) | SID363998708 |
| 0.0798 | 0.402 | 0.37 | POU6F2 (POU class 6 homeobox 2) | SID363997943 |
| 0.121 | 0.131 | 0.164 | OXTR (oxytocin receptor) | SID363992201 |
| 0.0743 | 0.36 | 0.259 | ALKBH4 (alkB homolog 4, lysine demethylase) | SID364000397 |
| 0.127 | 0.23 | 0.249 | CLCA4 (chloride channel accessory 4) | SID363998075 |
| 0.156 | 0.721 | 0.478 | AK8 (adenylate kinase 8) | SID364004728 |
| 0.132 | 0.12 | 0.314 | ZFP69B (ZFP69 zinc finger protein B) | SID364002630 |
| 0.081 | 0.104 | 0.186 | UBE2D4 (ubiquitin conjugating enzyme E2 D4) | SID363999771 |
| 0.0512 | 0.0937 | 0.323 | AK5 (adenylate kinase 5) | SID363998042 |
| 0.12 | 0.286 | 0.26 | SPHKAP (SPHK1 interactor, AKAP domain containing) | SID364005236 |
| 0.0589 | 0.056 | 0.315 | DUSP22 (dual specificity phosphatase 22) | SID364001538 |
| 0.144 | 0.05 | 0.35 | SATB1 (SATB homeobox 1) | SID363994122 |
| 0.142 | 0.606 | 0.324 | ABCB6 (ATP binding cassette subfamily B member 6 (LAN blood group)) | SID363996579 |
| 0.085 | 0.237 | 0.301 | LAMA3 (laminin subunit alpha 3) | SID363991561 |
| 0.141 | 0.123 | 0.207 | DYRK1B | SID363995673 |
| 0.106 | 0.256 | 0.838 | RGS22 (regulator of G protein signaling 22) | SID363999636 |
| 0.0435 | 0.0641 | 0.193 | NGLY1 (N-glycanase 1) | SID364000954 |
| 0.0817 | 0.166 | 0.241 | WDFY1 (WD repeat and FYVE domain containing 1) | SID364001855 |
| 0.093 | 0.145 | 0.235 | TMEM126B (transmembrane protein 126B) | SID364001108 |
| 0.0842 | 0.198 | 0.311 | TCN2 (transcobalamin 2) | SID363991687 |
| 0.142 | 1.67 | 0.579 | OSGEPL1 (O-sialoglycoprotein endopeptidase like 1) | SID364002409 |
| 0.112 | 0.174 | 0.273 | KYAT3 (kynurenine aminotransferase 3) | SID364001438 |
| 0.083 | 0.031 | 0.308 | RPL3L (ribosomal protein L3 like) | SID363995999 |
| 0.143 | 0.0792 | 0.358 | TM4SF5 (transmembrane 4 L six family member 5) | SID363995017 |
| 0.152 | 0.26 | 0.417 | NDNF (neuron derived neurotrophic factor) | SID364002880 |
| 0.0689 | 0.191 | 0.272 | TMEM176A (transmembrane protein 176A) | SID364001113 |
| 0.228 | 0.196 | 0.393 | CCNL1 (cyclin L1) | SID364001597 |
| 0.0706 | 0.0712 | 0.205 | KIF9 (kinesin family member 9) | SID364002401 |
| 0.156 | 0.168 | 0.257 | RNASE7 (ribonuclease A family member 7) | SID364004063 |
